For this data set, the target named is La-RRM1+2 (human) (UniProt P05455). Briefly: EMSA. The following applies: partial shift only above 300 nM protein, no reliable Kd; EMSA: about 20 mM Tris-HCl pH 7.4, 150 mM NaCl, 3 mM MgCl2, 0.5 mM EDTA, IGEPAL, glycerol, 50 nM RNA, RT 10 min; recombinant protein; protein details: His.

Amino acid sequences for entries named in this document (tags omitted). Residues count along the entry.
UniProt P05455, 111-348: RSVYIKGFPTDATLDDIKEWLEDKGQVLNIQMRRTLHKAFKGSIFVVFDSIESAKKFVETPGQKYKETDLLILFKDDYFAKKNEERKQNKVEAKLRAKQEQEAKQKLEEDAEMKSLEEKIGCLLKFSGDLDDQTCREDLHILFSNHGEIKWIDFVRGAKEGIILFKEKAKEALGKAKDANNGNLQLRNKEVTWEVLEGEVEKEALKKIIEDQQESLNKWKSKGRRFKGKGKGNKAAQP

For at least one entry, the source does not settle the construct or the ends of the probe. The comparison behind a weaker result is the experiment's own reference, which may not be listed here.

Turning to CCCUUUUCCCACCCCCUAGCGCCGCUGGGCCU [TOPf], the binding result is reported as “binds more weakly”.
